Experimental data as given in PMC3107199.
No constants are given. Whether binding was seen depends on the method and setting. In cells and extracts the contact can be indirect. Some entries that bind do so weakly or less than the wild type.

Chains of the proteins cited; added tags and fusions are not shown.
UniProt P19109: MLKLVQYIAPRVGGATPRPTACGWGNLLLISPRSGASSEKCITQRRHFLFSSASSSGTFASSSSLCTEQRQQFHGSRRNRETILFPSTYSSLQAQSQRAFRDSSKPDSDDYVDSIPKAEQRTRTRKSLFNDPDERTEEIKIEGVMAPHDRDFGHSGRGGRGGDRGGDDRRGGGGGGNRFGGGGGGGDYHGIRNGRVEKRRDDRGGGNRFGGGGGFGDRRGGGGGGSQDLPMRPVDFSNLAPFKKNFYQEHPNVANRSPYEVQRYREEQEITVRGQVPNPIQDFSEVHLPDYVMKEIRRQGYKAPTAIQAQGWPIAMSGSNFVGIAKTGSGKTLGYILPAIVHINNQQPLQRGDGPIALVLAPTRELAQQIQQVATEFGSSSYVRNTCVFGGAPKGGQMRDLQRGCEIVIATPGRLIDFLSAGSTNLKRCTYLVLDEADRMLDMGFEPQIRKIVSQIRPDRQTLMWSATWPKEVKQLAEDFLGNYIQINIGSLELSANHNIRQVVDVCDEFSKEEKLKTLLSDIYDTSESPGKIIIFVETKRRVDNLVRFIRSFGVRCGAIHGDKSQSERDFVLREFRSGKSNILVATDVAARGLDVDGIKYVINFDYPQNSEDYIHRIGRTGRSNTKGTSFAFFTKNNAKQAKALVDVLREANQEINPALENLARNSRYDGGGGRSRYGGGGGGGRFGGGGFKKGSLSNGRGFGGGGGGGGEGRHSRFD

Target: recombinant GST-Rm62 (Drosophila) (UniProt P19109)
Test: pull-down; recombinant GST-Rm62 or GST incubated overnight with adult fly head lysate; Western blot for Pur α; samples treated or untreated with RNase; only the target purified

binding: binds
B1: endogenous Pur α (protein, UniProt Q95RR6 1-274)
chain: MSDLGSGDDGISGSKYNVANMEGSSSRNDFDSSAKGGSGVEQELATKMLQIQSKRFYLDVKQNRRGRFIKVAEIGADGRRSQIYLALSTAAEFRDHLSSFSDYYASLGPPNTDNLPEDGKLKSEMMIKDYRRYYLDLKENARGRFLRVSQTITRGGPRSQIALPAQGMIEFRDALTDLLEEFGANDGGFKGDLPEERHMKVDNKNFYFDIGQNNRGVYMRISEVKNNFRTSITIPEKCWIRFRDIFNDYCEKMKKSSDSITAEINLPTSSNSLK
